The assay has as its target CSPα ΔJ-SBP-FLAG (UniProt Q9H3Z4). The experiment in a line: affinity purification with mass spectrometry.

Protein sequences, listed by entry. Tags and fused reporters are not part of them. Lines headed by an entry give the natural chain unless they say otherwise; changes in a name come on top. Residues count along the entry.
UniProt Q9H3Z4: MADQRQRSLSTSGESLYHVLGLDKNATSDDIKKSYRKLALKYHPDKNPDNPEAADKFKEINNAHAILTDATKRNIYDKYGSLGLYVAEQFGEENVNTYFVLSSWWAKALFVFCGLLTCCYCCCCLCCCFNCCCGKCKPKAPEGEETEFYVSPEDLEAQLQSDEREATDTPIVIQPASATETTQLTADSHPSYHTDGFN
UniProt P38646, residues 47-679: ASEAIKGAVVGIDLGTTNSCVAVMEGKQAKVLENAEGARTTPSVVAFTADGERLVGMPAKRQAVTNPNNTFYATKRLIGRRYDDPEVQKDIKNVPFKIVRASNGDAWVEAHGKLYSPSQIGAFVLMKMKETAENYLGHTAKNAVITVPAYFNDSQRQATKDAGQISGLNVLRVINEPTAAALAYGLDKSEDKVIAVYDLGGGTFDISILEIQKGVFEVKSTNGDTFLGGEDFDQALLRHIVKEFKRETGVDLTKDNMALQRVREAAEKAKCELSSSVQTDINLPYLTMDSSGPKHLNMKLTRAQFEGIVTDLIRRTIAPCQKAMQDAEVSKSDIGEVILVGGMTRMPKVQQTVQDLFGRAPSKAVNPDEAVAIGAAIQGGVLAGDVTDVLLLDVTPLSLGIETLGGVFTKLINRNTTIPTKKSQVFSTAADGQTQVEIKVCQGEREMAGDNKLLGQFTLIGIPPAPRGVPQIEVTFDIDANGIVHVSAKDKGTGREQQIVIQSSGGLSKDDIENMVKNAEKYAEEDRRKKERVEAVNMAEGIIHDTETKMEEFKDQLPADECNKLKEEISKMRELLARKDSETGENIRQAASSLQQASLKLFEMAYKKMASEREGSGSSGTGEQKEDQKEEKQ

Results are given in words; binding and its absence hold for the method and conditions named. Binding seen in cells or lysates may run through a third protein. A yes stands for co-enrichment or nearness to the bait. Other partners may have been found.

Regarding “CD98hc (endogenous) (from UniProt P08195 1-529)”, the binding result was “binds”.

For “HSPA9 (endogenous) (from UniProt P38646 47-679)”, the binding entry was “binds”.

For the origin of these results see article doi:10.1101/2021.07.16.452648.
